Reference: PubChem BioAssay (EPA / NIEHS)
The shares of active, inactive and inconclusive entries below differ from those in the screen. For part of these data: A potency beside an inconclusive call is a rough fit, not a confirmed value. Where a structure was tested more than once in an assay, its records may differ in their call. Calls of active or inactive are those of the source. The calls were made as follows: active = hit-call score of the fitted dose curve at least 0.9, where 1 is the maximum; inconclusive = response in the unintended direction; inactive = score below 0.9.

By UniProt entry, the sequences of proteins in these tests, tags left out. Where a name states a change or a piece, a line headed by the entry shows the natural chain unless it says otherwise.
UniProt P37231: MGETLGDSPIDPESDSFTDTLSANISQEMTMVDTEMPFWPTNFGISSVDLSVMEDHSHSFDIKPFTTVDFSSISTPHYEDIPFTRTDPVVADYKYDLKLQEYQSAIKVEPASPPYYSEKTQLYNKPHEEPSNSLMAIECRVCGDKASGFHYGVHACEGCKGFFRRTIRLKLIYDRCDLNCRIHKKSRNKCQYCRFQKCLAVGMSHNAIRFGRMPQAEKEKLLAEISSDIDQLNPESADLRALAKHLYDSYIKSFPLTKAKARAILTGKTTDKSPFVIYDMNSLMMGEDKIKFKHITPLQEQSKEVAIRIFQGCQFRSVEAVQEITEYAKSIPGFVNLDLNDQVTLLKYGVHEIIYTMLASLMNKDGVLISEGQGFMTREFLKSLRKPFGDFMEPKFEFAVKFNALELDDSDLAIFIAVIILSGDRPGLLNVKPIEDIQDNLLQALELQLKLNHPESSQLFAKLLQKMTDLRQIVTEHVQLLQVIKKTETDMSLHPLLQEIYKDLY
UniProt P03372, whole entry, looked up: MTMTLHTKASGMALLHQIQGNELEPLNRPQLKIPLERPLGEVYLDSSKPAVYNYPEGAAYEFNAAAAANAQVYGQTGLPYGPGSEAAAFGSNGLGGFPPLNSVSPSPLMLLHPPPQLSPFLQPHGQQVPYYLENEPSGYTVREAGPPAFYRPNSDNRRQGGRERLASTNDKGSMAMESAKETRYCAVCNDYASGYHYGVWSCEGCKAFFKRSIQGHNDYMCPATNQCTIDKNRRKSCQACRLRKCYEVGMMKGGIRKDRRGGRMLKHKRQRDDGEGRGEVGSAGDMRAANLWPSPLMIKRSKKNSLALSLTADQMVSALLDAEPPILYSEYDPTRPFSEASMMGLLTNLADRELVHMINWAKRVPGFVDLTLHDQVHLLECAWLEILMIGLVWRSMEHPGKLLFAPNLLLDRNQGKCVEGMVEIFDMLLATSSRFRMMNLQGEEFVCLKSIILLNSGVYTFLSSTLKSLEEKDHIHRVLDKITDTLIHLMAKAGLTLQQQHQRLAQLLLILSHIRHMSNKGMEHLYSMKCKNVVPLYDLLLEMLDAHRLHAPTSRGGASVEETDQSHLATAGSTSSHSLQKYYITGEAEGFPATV
UniProt Q92731, whole entry, looked up: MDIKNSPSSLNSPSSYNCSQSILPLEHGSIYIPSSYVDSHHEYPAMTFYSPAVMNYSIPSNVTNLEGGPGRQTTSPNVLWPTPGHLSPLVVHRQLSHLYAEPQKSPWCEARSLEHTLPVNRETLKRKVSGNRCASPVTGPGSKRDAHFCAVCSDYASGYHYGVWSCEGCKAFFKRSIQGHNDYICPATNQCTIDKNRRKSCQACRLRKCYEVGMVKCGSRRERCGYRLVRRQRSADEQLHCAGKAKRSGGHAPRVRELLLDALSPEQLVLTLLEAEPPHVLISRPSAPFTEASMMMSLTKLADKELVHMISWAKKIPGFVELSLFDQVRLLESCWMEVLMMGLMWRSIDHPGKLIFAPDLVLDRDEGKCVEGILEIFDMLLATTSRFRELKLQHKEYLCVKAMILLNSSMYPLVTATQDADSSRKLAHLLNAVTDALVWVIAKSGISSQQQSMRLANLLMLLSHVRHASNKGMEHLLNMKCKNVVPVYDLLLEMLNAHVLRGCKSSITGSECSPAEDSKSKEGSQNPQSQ
UniProt Q9UNQ0: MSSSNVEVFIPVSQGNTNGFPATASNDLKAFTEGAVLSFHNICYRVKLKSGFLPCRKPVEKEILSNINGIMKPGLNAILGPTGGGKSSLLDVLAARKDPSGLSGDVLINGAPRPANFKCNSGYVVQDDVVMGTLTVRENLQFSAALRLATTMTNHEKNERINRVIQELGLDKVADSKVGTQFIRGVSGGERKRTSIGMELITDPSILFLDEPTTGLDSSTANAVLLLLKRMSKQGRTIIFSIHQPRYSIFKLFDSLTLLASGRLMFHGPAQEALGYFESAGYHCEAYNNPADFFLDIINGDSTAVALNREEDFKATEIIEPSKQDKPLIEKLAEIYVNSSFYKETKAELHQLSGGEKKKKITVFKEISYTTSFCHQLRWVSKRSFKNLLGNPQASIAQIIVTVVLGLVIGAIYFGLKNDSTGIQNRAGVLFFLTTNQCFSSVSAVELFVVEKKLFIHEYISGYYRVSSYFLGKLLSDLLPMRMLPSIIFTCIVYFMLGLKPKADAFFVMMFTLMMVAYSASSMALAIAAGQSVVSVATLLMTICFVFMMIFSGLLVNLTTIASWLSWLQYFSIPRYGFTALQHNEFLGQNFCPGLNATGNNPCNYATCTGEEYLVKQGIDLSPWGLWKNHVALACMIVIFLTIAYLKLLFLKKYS
UniProt P04386, whole entry, looked up: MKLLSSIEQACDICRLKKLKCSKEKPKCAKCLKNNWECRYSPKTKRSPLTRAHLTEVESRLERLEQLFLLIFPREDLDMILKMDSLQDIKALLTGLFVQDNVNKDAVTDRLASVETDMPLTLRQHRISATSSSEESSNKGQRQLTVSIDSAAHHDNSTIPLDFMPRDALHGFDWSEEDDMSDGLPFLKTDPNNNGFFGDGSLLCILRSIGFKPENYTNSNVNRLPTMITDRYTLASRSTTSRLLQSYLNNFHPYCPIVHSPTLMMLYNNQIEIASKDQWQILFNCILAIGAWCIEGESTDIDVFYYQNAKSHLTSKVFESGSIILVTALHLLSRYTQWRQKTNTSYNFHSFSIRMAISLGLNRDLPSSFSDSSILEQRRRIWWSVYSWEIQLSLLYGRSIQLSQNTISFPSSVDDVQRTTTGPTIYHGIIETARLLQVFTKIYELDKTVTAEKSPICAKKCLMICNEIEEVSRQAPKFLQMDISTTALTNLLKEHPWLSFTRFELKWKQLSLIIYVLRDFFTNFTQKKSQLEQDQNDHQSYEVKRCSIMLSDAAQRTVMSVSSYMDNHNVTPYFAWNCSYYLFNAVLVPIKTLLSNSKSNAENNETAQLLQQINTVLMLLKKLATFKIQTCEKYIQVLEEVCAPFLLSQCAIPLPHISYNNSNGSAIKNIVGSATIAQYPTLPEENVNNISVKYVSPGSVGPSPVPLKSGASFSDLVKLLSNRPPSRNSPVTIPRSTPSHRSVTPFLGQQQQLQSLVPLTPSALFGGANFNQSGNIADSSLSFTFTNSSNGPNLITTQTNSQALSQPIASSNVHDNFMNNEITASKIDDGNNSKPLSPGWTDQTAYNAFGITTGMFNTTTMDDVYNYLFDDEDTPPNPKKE
UniProt P11511: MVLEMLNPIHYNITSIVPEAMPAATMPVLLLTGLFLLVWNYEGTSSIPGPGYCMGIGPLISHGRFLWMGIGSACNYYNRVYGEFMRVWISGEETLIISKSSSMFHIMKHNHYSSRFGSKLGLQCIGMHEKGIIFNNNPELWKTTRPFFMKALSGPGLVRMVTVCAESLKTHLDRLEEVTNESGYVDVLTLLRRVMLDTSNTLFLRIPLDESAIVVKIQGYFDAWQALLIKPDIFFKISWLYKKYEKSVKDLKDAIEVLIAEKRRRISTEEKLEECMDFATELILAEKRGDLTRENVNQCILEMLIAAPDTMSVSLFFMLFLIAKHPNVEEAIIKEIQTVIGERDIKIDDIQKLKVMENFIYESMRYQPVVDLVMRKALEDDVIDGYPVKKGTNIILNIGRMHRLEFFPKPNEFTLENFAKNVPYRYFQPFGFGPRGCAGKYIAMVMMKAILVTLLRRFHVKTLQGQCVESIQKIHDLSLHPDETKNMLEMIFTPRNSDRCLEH
UniProt P06401: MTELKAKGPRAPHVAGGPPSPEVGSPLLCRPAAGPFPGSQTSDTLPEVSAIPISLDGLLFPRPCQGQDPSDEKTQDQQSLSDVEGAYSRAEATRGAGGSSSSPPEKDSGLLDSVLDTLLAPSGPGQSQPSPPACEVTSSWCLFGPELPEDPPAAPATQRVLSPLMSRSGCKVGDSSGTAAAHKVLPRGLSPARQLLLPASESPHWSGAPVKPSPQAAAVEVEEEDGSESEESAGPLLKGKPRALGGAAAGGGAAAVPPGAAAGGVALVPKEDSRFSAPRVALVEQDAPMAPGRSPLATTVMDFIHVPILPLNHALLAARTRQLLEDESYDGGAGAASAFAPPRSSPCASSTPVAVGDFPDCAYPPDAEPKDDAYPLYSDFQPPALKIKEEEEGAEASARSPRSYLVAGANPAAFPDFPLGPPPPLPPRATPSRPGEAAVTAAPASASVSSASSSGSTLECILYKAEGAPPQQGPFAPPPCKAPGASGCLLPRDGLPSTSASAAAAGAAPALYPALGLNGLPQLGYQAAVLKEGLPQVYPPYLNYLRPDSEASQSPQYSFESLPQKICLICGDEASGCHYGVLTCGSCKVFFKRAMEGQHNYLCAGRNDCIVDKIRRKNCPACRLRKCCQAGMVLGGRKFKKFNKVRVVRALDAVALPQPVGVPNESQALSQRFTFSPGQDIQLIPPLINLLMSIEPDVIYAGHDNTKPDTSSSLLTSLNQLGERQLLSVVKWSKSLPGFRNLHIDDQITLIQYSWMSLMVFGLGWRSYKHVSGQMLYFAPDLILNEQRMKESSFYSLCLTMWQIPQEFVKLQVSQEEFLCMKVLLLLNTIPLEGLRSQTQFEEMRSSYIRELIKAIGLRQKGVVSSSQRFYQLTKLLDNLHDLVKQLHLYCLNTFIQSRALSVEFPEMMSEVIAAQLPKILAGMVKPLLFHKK
UniProt P10827: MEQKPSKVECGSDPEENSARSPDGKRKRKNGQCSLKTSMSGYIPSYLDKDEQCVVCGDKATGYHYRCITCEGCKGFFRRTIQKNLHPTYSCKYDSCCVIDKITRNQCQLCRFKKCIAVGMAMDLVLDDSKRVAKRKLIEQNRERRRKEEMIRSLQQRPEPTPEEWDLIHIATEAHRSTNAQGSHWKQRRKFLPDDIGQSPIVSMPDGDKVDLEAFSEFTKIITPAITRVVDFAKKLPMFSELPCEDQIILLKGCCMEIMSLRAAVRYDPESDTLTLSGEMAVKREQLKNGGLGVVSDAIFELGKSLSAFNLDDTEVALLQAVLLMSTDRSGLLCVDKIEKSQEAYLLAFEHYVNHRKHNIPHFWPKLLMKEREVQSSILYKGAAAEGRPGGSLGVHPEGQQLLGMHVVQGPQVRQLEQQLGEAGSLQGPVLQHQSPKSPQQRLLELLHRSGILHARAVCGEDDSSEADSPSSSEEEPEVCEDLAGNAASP
UniProt P20813: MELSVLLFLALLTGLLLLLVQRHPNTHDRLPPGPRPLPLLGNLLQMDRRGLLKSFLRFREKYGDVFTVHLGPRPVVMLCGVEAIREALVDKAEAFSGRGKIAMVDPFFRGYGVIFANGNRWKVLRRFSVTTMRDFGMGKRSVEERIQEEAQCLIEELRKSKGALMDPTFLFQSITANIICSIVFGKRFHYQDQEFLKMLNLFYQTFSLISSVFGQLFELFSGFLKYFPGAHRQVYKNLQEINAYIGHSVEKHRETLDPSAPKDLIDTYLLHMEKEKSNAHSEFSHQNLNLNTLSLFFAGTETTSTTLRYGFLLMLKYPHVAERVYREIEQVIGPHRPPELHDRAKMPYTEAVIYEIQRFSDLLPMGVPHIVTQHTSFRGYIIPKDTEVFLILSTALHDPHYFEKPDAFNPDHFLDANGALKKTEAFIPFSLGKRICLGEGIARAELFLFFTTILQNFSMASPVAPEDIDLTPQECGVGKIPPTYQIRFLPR
UniProt P15204: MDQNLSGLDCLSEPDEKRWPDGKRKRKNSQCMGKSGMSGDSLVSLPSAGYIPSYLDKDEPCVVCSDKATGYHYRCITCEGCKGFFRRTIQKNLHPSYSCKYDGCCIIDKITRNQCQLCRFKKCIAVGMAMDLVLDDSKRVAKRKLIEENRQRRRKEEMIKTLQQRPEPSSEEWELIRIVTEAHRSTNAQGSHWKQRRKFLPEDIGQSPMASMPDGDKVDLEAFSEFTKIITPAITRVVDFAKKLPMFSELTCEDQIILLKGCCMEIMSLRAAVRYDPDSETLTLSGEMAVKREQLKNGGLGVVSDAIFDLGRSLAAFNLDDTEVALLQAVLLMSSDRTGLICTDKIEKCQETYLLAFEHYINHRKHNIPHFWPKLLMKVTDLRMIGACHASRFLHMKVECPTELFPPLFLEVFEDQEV
UniProt P08684, whole entry, looked up: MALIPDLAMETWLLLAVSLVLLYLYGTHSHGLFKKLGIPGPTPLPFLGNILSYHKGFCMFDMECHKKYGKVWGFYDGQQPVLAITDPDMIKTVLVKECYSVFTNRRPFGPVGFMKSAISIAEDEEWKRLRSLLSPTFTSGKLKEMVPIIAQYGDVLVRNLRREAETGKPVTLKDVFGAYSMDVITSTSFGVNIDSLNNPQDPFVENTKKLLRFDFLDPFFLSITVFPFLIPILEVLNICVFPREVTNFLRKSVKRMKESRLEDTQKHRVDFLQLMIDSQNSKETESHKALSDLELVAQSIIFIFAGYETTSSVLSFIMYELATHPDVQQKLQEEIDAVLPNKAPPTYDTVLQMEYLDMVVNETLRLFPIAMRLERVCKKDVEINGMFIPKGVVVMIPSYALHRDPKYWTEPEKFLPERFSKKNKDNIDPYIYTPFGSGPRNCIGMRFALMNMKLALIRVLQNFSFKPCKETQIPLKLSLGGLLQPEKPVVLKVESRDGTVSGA

Key:
[1] = target: Peroxisome proliferator-activated receptor gamma (Homo sapiens) (UniProt P37231); assay: OT_PPARg_PPARgSRC1_0480: Odyssey Thera (OT) 8-hour Protein-Complementation Assay for Peroxisome Proliferator-activated Receptor Gamma / SRC-1 Co-activator (AID 2283387);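 also: nuclear to cytoplasmic split Venus YFP fluorescence ratio reporting PPARg SRC-1 interaction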
In short: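 Split-YFP (IFP1/IFP2) PPARg/SRC-1 reporter, HEK293T, 37 °C, 5% CO2; 8 h compound; formaldehyde fix + Draq5; high-content imaging, N/C ratio, ≥350 cells/image, positive direction vs DMSO.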

[2] = read-out: sulfotransferase (SULT2A), SULT2A1 (gene 6822); assay: CLD_SULT2A_24hr: CellzDirect (CLD) Gene Expression Assay for sulfotransferase (SULT2A) at 24 hours (AID 2283694);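 as to AC50: potency for increased SULT2A1 mRNA level as induction over DMSO baseline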
In short: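 Primary human hepatocytes from two donor preparations were dosed daily with fresh solutions, vehicle 0.2% DMSO. At 24 h, lysates went to quantitative nuclease protection (qNPA) with S1 digestion and chemiluminescent readout. Cytotoxicity was annotated from phase-contrast morphology.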

[3] = STM_H9_OrnCyssISnorm_ratio: Stemina devTOX quickPredict H9 human embryonic stem cell (hESC)-based Assay for Ornithine (ORN):Cystine (CYSS) Ratio (AID 2283714)
In short: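 Undifferentiated H9 hESCs were exposed to compound for 72h with media and chemical replaced every 24h. Final 24-h conditioned media were deproteinized and analysed by UPLC-HRMS. ORN and CYSS peak areas were normalized to C13 internal standards and the ratio taken versus 0.1% DMSO.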

[4] = target: Estrogen receptor (Homo sapiens) + Estrogen receptor beta (Homo sapiens) (UniProt P03372+Q92731); assay: OT_ER_ERaERb_0480: Odyssey Thera (OT) 8-hour HEK293T Protein-Complementation Assay for Estrogen Receptor-alpha/-beta Heterodimer (AID 2283352)
In short: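 Compound added to HEK293T cells carrying split-reporter-tagged ER-alpha and ER-beta LBDs, incubated 8 hours, then imaged by laser scanning cytometer. Signal rise in nucleus, or nucleus and cytoplasm, over vehicle was fitted in the positive direction.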

[5] = read-out: Broad substrate specificity ATP-binding cassette transporter ABCG2 (Homo sapiens) (UniProt Q9UNQ0); assay: CLD_ABCG2_24hr: CellzDirect (CLD) Gene Expression Assay for ABC Transporter (ABCG2) at 24 hours (AID 2283685)
In short: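 Primary human hepatocytes were dosed daily with ToxCast chemicals at multiple concentrations (vehicle 0.2% DMSO). ABCG2 mRNA was measured at 24 h by qNPA chemiluminescence; induction was scored as gain of signal versus DMSO.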

[6] = target: Estrogen receptor beta (Homo sapiens) (UniProt Q92731); assay: OT_ER_ERbERb_0480: Odyssey Thera (OT) 8-hour HEK293T Protein-Complementation Assay for Estrogen Receptor-beta/-beta Homodimer (AID 2283357);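 also: active means signal gain over DMSO baseline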
In short: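 Readout: increase in mean fluorescence intensity (nucleus for agonists; nucleus plus cytoplasm for antagonists) relative to DMSO, from a reporter-fragment complementation of human ER-beta LBD homodimer in HEK293T cells dosed 8 hours.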

[7] = Tanguay_ZF_120hpf_SWIM_legacy: (Legacy) Oregon State University Tanguay Lab 120 Hour Post-fertilization zebrafish Assay for Swim Bladder Malformation (AID 2283654);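 also: swim bladder malformation in each larva scored yes or no under brightfield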
In short: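 Dechorionated Tropical 5D wild-type embryos, placed singly from 6 hpf, were statically exposed at 28C to 120 hpf with 0.64% DMSO final; swim bladder malformation was scored present/absent by brightfield microscopy, gain of signal relative to DMSO controls.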

[8] = read-out: ABC Transporter (ABCB11), ABCB11 (gene 8647); assay: CLD_ABCB11_6hr: CellzDirect (CLD) Gene Expression Assay for ABC Transporter (ABCB11) at 6 hours (AID 2283675);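 also: hits raise ABCB11 mRNA level so AC50 marks induction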
In short: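 Human primary hepatocytes (two donor preparations) given fresh chemical daily at multiple concentrations, vehicle 0.2% DMSO. ABCB11 mRNA induction measured 6 h after dosing by qNPA chemiluminescence versus DMSO; cytotoxicity annotated from morphology.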

[9] = CCTE_Shafer_MEA_dev_LDH: CCTE's Lactate Dehydrogenase Assay for Cytotoxicity in the Neural Network Formation Assay, Shafer Lab (AID 2284068);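 also: exposure for twelve days from plating with re-dosing on DIV 5 and 9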
In short: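 Developing rat cortical networks on MEA plates are exposed to compound for 12 days from plating. LDH activity is measured spectrophotometrically, with DMSO as baseline.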

[10] = ACEA_AR_antagonist_AUC_viability: ACEA Biosciences xCELLigence Real-Time Cell Analysis on Androgen Receptor Antagonism for Viability (AID 2283776);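 also: 22Rv1 human prostate cancer cells growing on impedance electrode plates; area under impedance growth curve at 80 h after dosing as viability; hits lower the growth signal relative to DMSO meaning cytotoxicity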
In short: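 Viability endpoint from label-free cell-index monitoring: 22Rv1 cultures treated with an eight-point 1:4 dilution series starting at 100 uM final, AUC at 80 h fitted against DMSO.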

[11] = target: GAL4 Transcription Factor (Internal Marker), GAL4 (gene 855828) (UniProt P04386); assay: ATG_GAL4_XSP2: Attagene TRANS-FACTORIAL Multi-Species (XSP2) HepG2 Assay for GAL4 Transcription Factor (Internal Marker) (AID 2283814);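 also: GAL4 reporter mRNA background control in MRTU transfected cells not a receptor target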
In short: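 HepG2 cells transiently transfected with GAL4-UAS reporter units, stimulated with 3 nM 6-alpha-fluorotestosterone plus 1.5 nM norgestrel, dosed 24 h. Reporter mRNA by RT-PCR/capillary electrophoresis; gain-of-signal fit versus DMSO, background control.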

[12] = target: human CYP19A1, CYP19A1 (gene 1588) (UniProt P11511); assay: NVS_ADME_hCYP19A1: NovaScreen (NVS) CYP450-related Enzyme Activity (ADME) Assay for human CYP19A1 (AID 2283098);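 also: potency for inhibitors seen as loss of fluorescent enzyme signal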
In short: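 Cell-free enzyme assay with recombinant protein and a specific fluorogenic substrate, read by fluorescence intensity 0.5 h after dosing. Primary screen ran in duplicate at 10 uM; actives were retested in concentration series. Loss of signal versus acetonitrile baseline.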

PGR (gene 5241) = PGR (gene 5241) (UniProt P06401); assay: NVS_NR_hPR: NovaScreen (NVS) Nuclear Receptor Binding Assay for human Progestron Receptor (PR) (AID 2283360);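 also: active means loss of bound radioligand signal versus DMSO baseline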
In short: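 Competitive displacement of a labelled radioligand from T47D-derived receptor protein is measured in a cell-free format. Initial testing uses 25 uM in duplicate, with positive and negative controls on every plate.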

[13] = target: human Thyroid Receptor Alpha (TRa), THRA (gene 7067) (UniProt P10827); assay: NVS_NR_hTRa_Antagonist: NovaScreen (NVS) Nuclear Receptor Binding Assay for human Thyroid Receptor Alpha Antagonism (TRa) (AID 2283362);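 also: activity is loss of signal relative to DMSO baseline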
In short: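 Extracted protein, cell-free; 1 h incubation after dosing; AlphaLISA chemiluminescence binding readout. DMSO = baseline/neg ctrl; signal loss = activity. Primary: duplicate, 25 uM; secondary: conc. series on actives.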

[14] = read-out: Cytochrome P450 2B6 (Homo sapiens) (UniProt P20813); assay: CLD_CYP2B6_48hr: CellzDirect (CLD) Gene Expression Assay for xenobiotic metabolism (CYP2B6) at 48 hours (AID 2283699);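 also: actives raise transcript level above DMSO so potency reflects induction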
In short: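 Primary human hepatocytes dosed daily for two days over multiple concentrations, 0.2% DMSO vehicle; CYP2B6 mRNA quantified at 48 h by qNPA chemiluminescence. Induction fitted as gain of signal versus DMSO; cytotoxicity annotated by morphology.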

[15] = Tanguay_ZF_120hpf_BRAI_legacy: (Legacy) Oregon State University Tanguay Lab 120 Hour Post-fertilization zebrafish Assay for Brain Malformation (AID 2283641)
In short: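 Wild-type 5D larvae, static waterborne exposure to 120 hpf, 28C, 0.64% v/v DMSO. Brightfield scoring of brain defects, binary; dead embryos excluded. Positive ctrl 5uM trimethyltin chloride.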

[16] = target: frog Thyroid hormone Receptor alpha (TRa), thra-a (gene 397942) (UniProt P15204); assay: ATG_frTRa_XSP2: Attagene TRANS-FACTORIAL Multi-Species (XSP2) HepG2 Assay for frog Thyroid hormone Receptor alpha (TRa) (AID 2283839);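 as to AC50: AC50 reflects induction of frog TRa-driven reporter mRNA above DMSO baseline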
In short: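 Transfect HepG2 with multiple reporter units (GAL4-UAS), dose chemical, incubate 24 h. Isolate RNA, reverse-transcribe, PCR-amplify reporter, label with 6-FAM by primer extension, digest with HpaI, run capillary electrophoresis; induction scored against DMSO.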

[17] = test system: turtle Thyroid Hormone Receptor, alpha (TRa), gene 101949057; assay: ATG_trTRa_XSP2: Attagene TRANS-FACTORIAL Multi-Species (XSP1) HepG2 Assay for turtle Thyroid Hormone Receptor, alpha (TRa) (AID 2283834);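 also: hits raise reporter mRNA over the DMSO baseline so AC50 marks activators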
In short: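 Transfection of HepG2 with multiple reporter transcription units, then chemical dosing for 24 h. Total RNA was reverse-transcribed, reporter sequences PCR-amplified and FAM-labelled, then sized by capillary electrophoresis. DMSO served as baseline.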

[18] = read-out: Cytochrome P450 3A4 (Homo sapiens) (UniProt P08684); assay: CLD_CYP3A4_48hr: CellzDirect (CLD) Gene Expression Assay for xenobiotic metabolism (CYP3A4) at 48 hours (AID 2283698)
In short: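 Primary human hepatocytes from two donor preparations dosed daily for two days with multiple chemical concentrations, 0.2% DMSO vehicle. CYP3A4 mRNA at 48 h by quantitative nuclease protection assay, chemiluminescence, positive fit versus DMSO; cytotoxicity flagged morphologically.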

[19] = CCTE_Mundy_HCI_hNP1_Pro_ResponderAvgInten: CCTE's Proliferation Assay in human neuroprogenitor cells, Mundy Lab (AID 2284224);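 also: human neural progenitor cells hNP1 derived from WA09 embryonic stem cells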
In short: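 Human neuroprogenitors (hNP1, WA09 lineage) receive test chemical after 40 to 44 hours of attachment. A four-hour BrdU pulse begins twenty hours later, followed by fixation and high content imaging; signal is referenced to DMSO controls.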

C=CCC1=C(C)[C@@H](OC(=O)[C@@H]2[C@@H](C=C(C)C)C2(C)C)CC1=O
AC50 [1]: inconclusive: 29.9 µM | outcome [2]: inactive | AC50 [3]: inconclusive: 5 µM

COc1cc(Cl)c(OC)cc1Cl
outcome [4]: inactive | outcome [5]: inactive

ClC1C(Cl)C(Cl)C(Cl)C(Cl)C1Cl (centres undefined)
AC50 [6]: active: 50 µM | AC50 [7]: inconclusive: 27.9 µM | AC50 [8]: inconclusive: 20 µM | outcome [9]: inactive

CC1=C(C(=O)Nc2ccccc2)SCCO1
AC50 [7]: inconclusive: 20.2 µM | AC50 [8]: inconclusive: 35.9 µM

c1ccc(NNc2ccccc2)cc1
AC50 [7]: inconclusive: 8.36 µM

CCCCC(CC)COC(=O)c1ccc(C(=O)OCC(CC)CCCC)c(C(=O)OCC(CC)CCCC)c1 (centres undefined)
outcome [10]: inactive | outcome [11]: inactive

O=NN(c1ccccc1)c1ccccc1
outcome [3]: inactive

COC(=O)c1ccccc1S(=O)(=O)NC(=O)Nc1nc(C)nc(OC)n1
AC50 [12]: inconclusive: 10 µM | AC50 (PGR (gene 5241)): inconclusive: 25 µM | AC50 [13]: inconclusive: 9 µM | AC50 [14]: inconclusive: 0.114 µM

Nc1ccc([N+](=O)[O-])cc1
outcome (PGR (gene 5241)): inactive

O=C(CBr)OCc1ccccc1
AC50 [10]: inconclusive: 0.266 µM

CCCC1COC(Cn2cncn2)(c2ccc(Cl)cc2Cl)O1 (centres undefined)
AC50 [12]: active: 2.04 µM | AC50 [13]: inconclusive: 0.336 µM | AC50 [15]: active: 30.2 µM | AC50 [8]: inconclusive: 20 µM | outcome [5]: inactive | AC50 [10]: active: 74.8 µM | outcome [11]: inactive | AC50 [16]: inconclusive: 100 µM

CCOC(=O)C(O)(c1ccc(Cl)cc1)c1ccc(Cl)cc1
AC50 [11]: inconclusive: 33.4 µM | AC50 [17]: inconclusive: 33.4 µM | outcome [17]: inactive | outcome [16]: inactive

CC(C)N(Cc1ccccc1)C(=O)C(C)(C)C
AC50 [1]: inconclusive: 50 µM

CSC(=O)c1c(C(F)F)nc(C(F)(F)F)c(C(=O)SC)c1CC(C)C
AC50 [4]: active: 31.9 µM | outcome [11]: inactive | AC50 [17]: inconclusive: 100 µM | AC50 [16]: inconclusive: 100 µM

CCCCNC(=O)n1c(NC(=O)OC)nc2ccccc21
AC50 [15]: inconclusive: 31.8 µM | AC50 [2]: inconclusive: 7.29 µM | AC50 [18]: inconclusive: 1.89 µM | AC50 [14]: inconclusive: 0.0004 µM | AC50 [9]: inconclusive: 3.58 µM | AC50 [19]: inconclusive: 27.1 µM

CCOC1Oc2ccc(OS(C)(=O)=O)cc2C1(C)C (centres undefined)
AC50 [8]: inconclusive: 20 µM | outcome [5]: inactive

CNC(=O)ON=C(C)SC
outcome (PGR (gene 5241)): inactive | AC50 [13]: inconclusive: 0.0672 µM | AC50 [2]: inconclusive: 20 µM | AC50 [14]: inconclusive: 20 µM

CC(C1CC1)C(O)(Cn1cncn1)c1ccc(Cl)cc1 (centres undefined)
outcome [13]: inactive | AC50 [1]: inconclusive: 49.8 µM | AC50 [7]: active: 32.6 µM | AC50 [14]: active: 2.42 µM
